From paper PMC5715073
No constants are given. Whether binding was seen depends on the method and setting. In cells and extracts the contact can be indirect. Some binding calls cover weakened binding; strength is not graded here. One block for each binder: values may come before it.

How the values were obtained:
Test in all cases: co-IP; cells cross-linked with 2 mM DSP (1 h, RT) before lysis in NP-40 buffer (50 mM Tris-HCl pH 8.0, 150 mM NaCl, 1% NP-40); 1 mg pre-cleared lysate, 2 µg anti-IL-13Rα2, anti-EGFR or anti-Grb2, protein G beads, 4 °C; immunoblot
[1] = target: wild-type EGFR stably expressed in Gli36 cells (human) (UniProt P00533)
[2] = target: endogenous wild-type EGFR of primary wtEGFR-positive GBM patient tumor (human (endogenous in primary GBM patient tumor)) (UniProt P00533)
[3] = target: wild-type EGFR, tetracycline-induced in U251-E6 cells (human) (UniProt P00533)

- binding [1]: binds
B1: interleukin-13 receptor alpha 2 (IL-13Rα2), full length, stably expressed in Gli36 cells (receptor, UniProt Q14627 27-380)
chain: DTEIKVNPPQDFEIVDPGYLGYLYLQWQPPLSLDHFKECTVEYELKYRNIGSETWKTIITKNLHYKDGFDLNKGIEAKIHTLLPWQCTNGSEVQSSWAETTYWISPQGIPETKVQDMDCVYYNWQYLLCSWKPGIGVLLDTNYNLFYWYEGLDHALQCVDYIKADGQNIGCRFPYLEASDYKDFYICVNGSSENKPIRSSYFTFQLQNIVKPLPPVYLTFTRESSCEIKLKWSIPLGPIPARCFDYEIEIREDDTTLVTATVENETYTLKTTNETRQLCFVVRSKVNIYCSDDGIWSEWSDKQCWEGEDLSKKTLLRFWLPFGFILILVIFVTGLLLRKPNTYPKMIPEFFCDT

- binding [2]: binds
- binding [3]: binds
B2: endogenous IL-13Rα2 of glioma cells and primary GBM tumors (receptor, UniProt Q14627 27-380)
chain: B1 chain
